± gives the standard deviation of the averaged measurements. The full ranking holds about 1,700 compounds; the median of “T2 sensor activation Q score (MG/GFP ratio z-score vs DMSO controls)” is about 0.3, and the highest 2% start at about 1.9. Some of the results follow.
Test system: ppGalNAc-T2 sensor
Assay: T2 sensor activation Q score (MG/GFP ratio z-score vs DMSO controls) (SD units); higher = more sensor activation (inhibition of ppGalNAc-T2 glycosylation)
Details: HEK293 sensor cells; 10 µM; 6 h
Experimental: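 Cells were treated with compound at 10 uM for 6 h, then MG/GFP ratio was read by flow cytometry (10,000 cells per well, duplicate wells). Q = (R - R_neg)/SD_neg relative to DMSO vehicle controls; the signal rises when the glycosyltransferase is inhibited.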

| Compound | T2 sensor activation Q score |
| --- | --- |
| COc1ccc(C2OC3=C(Nc4cc(C)c(C)cc4N3)C2=O)cc1 (configuration not stated) | -0.5 |
| CO[C@@]12[C@H](COC(N)=O)C3=C(C(=O)C(C)=C(N)C3=O)N1C[C@@H]1N[C@@H]12 | 0.425 ± 1.7 |
| OCC(O)C1OCOC(C(O)CO)C1O (configuration not stated) | -1.85 |
| c1ccc(-c2nnc(-c3ccccn3)s2)nc1 | 1.2 |
| Cc1ccc(N=Nc2c(O)ccc3n[nH]nc23)cc1 | 0.9 |
| Clc1nc(Oc2ccccc2)nc(-c2cn(-c3ccccc3)c3ccccc23)n1 | 0.05 |
| Nc1n[nH]c(-c2ccccc2)n1 | 0.75 |
| COc1ccc2nc3cc(Cl)ccc3c(C#N)c2c1 | -0.2 |
| N#C/C(=C\c1ccc[nH]1)C(=O)c1ccccc1 | 0.6 |
| C=CCOc1ccnc(-c2ccccc2)n1 | 1.6 |
| Oc1ccccc1-n1c(-c2ccccc2)ccc1-c1ccccc1 | 0.4 |
| C(=C\c1ccccn1)/c1ccccn1 | 2.1 |
| CC(=O)OCc1cc(-c2nc3ccccc3[nH]c2=O)nn1-c1ccc(Cl)cc1 | -0.35 |
| CC1CC(O)C2C3(C)CCCC2(COC3=O)C12CCC1(CCOC1=O)O2 (configuration not stated) | 0.55 |
| c1ccc(-c2ccc(-c3nccc4ccccc34)[nH]2)cc1 | -0.2 |
| N#CC1C=Cc2c(ccc3ccccc23)N1C(=O)c1ccccc1 (configuration not stated) | 1.45 |
| Cc1cc(=O)oc2cc(OS(C)(=O)=O)ccc12 | 1.2 |
| Cc1ccc(C(C)C)cc1NC(=O)Nc1ccc([N+](=O)[O-])cc1 | -0.3 |
| COc1ccc(CN2CCOC2=O)cc1OC | 0.95 |
| ONC(=NCc1ccccc1)c1ccccc1 | 0.45 |
| c1ccc(-c2ccc3c(c2)NCCN3)cc1 | 0.25 |
| O=c1oc(-c2ccccc2)c(-c2ccccc2)c2ccccc12 | 1.4 |
| CSc1cccc(NC(=O)Nc2nc3c(C)cccc3s2)c1 | -0.85 |
| O=C(Oc1ccccc1)c1cccc2cccc(C(=O)Oc3ccccc3)c12 | 1.05 |
| O=C(NC1CCCCC1)c1cc2ccccc2cc1O | 0.1 |

Given in CSV form: entries from further up.
Compound,T2 sensor activation Q score
COc1ccc(C2OC3=C(Nc4cc(C)c(C)cc4N3)C2=O)cc1 (configuration not stated),-0.5
CO[C@@]12[C@H](COC(N)=O)C3=C(C(=O)C(C)=C(N)C3=O)N1C[C@@H]1N[C@@H]12,0.425 ± 1.7
OCC(O)C1OCOC(C(O)CO)C1O (configuration not stated),-1.85
c1ccc(-c2nnc(-c3ccccn3)s2)nc1,1.2
Cc1ccc(N=Nc2c(O)ccc3n[nH]nc23)cc1,0.9
Clc1nc(Oc2ccccc2)nc(-c2cn(-c3ccccc3)c3ccccc23)n1,0.05
Nc1n[nH]c(-c2ccccc2)n1,0.75
COc1ccc2nc3cc(Cl)ccc3c(C#N)c2c1,-0.2
N#C/C(=C\c1ccc[nH]1)C(=O)c1ccccc1,0.6
C=CCOc1ccnc(-c2ccccc2)n1,1.6
Oc1ccccc1-n1c(-c2ccccc2)ccc1-c1ccccc1,0.4
C(=C\c1ccccn1)/c1ccccn1,2.1
CC(=O)OCc1cc(-c2nc3ccccc3[nH]c2=O)nn1-c1ccc(Cl)cc1,-0.35
CC1CC(O)C2C3(C)CCCC2(COC3=O)C12CCC1(CCOC1=O)O2 (configuration not stated),0.55
c1ccc(-c2ccc(-c3nccc4ccccc34)[nH]2)cc1,-0.2
N#CC1C=Cc2c(ccc3ccccc23)N1C(=O)c1ccccc1 (configuration not stated),1.45
Cc1cc(=O)oc2cc(OS(C)(=O)=O)ccc12,1.2
Cc1ccc(C(C)C)cc1NC(=O)Nc1ccc([N+](=O)[O-])cc1,-0.3
COc1ccc(CN2CCOC2=O)cc1OC,0.95
ONC(=NCc1ccccc1)c1ccccc1,0.45
c1ccc(-c2ccc3c(c2)NCCN3)cc1,0.25
CSc1cccc(NC(=O)Nc2nc3c(C)cccc3s2)c1,-0.85
O=C(Oc1ccccc1)c1cccc2cccc(C(=O)Oc3ccccc3)c12,1.05
O=C(NC1CCCCC1)c1cc2ccccc2cc1O,0.1

More structures follow:

| Compound | T2 sensor activation Q score |
| --- | --- |
| Nc1nc(N)c2cc(Sc3ccc4ccccc4c3)ccc2n1 | -1.95 |
| Clc1ccc(-c2c(C3=NCCCN3)nnn2-c2ccc(Cl)cc2)cc1 | -0.9 |
| CCOC(=O)c1c(NC(=S)NC)sc2c1CCCC2 | 1.7 |
| COC1=C[C@@H](C)[C@@H]2C[C@H]3OC(O)C[C@H]4C(C)=C(OC)C(=O)[C@H]([C@@]2(C)C1=O)[C@@]34C (some centres not stated) | -0.05 |
| O=C(Nc1cccc(-c2nc3ccccc3[nH]2)c1)c1ccc(C(=O)Nc2cccc(-c3nc4ccccc4[nH]3)c2)cc1 | 3 |
| c1ccc(-c2nnc3nc(N4CCCCC4)nc(N4CCCCC4)n23)cc1 | 1.35 |
| CCN(CC)CCN1c2ccccc2Sc2ccc3ccccc3c21 | -0.8 |
| Cc1cccc(N2CCN(CC(O)COc3ccc(Cl)cc3)CC2)c1 (configuration not stated) | 0.45 |
| CCOC(=O)Cc1cc(=O)c2cc(C)ccc2[nH]1 | 0.8 |
| CCc1noc2cc(-c3ccccc3)n(C)c(=O)c12 | 0.45 |
| COC(=O)C1(F)C(=O)NC(=O)NC1OC (configuration not stated) | -0.05 |
| O=C(/C=C/c1ccc(Cl)s1)c1ccc(Cl)s1 | 1.15 |
| Nc1nc(N)c(C=Nc2ccc(Br)cc2)c(Nc2ccc(Br)cc2)n1 | 0.25 |
| CCCNC(=O)c1ccccc1C(=O)NC1(C(=O)NCCC)CCCC1 | 0 |
| Cc1ccc(N=Nc2c(N)nn(-c3ccccc3)c2N)cc1 | 1.35 |
| Cc1cccc(C(O)C(O)c2cccc(C)n2)n1 (configuration not stated) | 0.55 |
| CC(=NO)C1CC(CC(=O)O)C1(C)C (configuration not stated) | -0.25 |
| O=C1C=CC(=O)N1c1ccc(I)cc1Cl | -0.45 |
| c1ccc2c(c1)cnc1ccccc12 | -1.75 |
| CC[C@@]1(O)C(=O)OCc2c1cc1n(c2=O)Cc2cc3c(N)cccc3nc2-1 | 0.25 |
| Nc1nc(N)c(N=Nc2ccc(C(=O)O)cc2)c(N)n1 | 0.9 |
| NC1=NC(c2ccccc2)N=C(Nc2ccccc2)N1 (configuration not stated) | 0 |
| CCOc1ccc(S(=O)(=O)c2ccc(C)cc2)c2c1no[n+]2[O-] | 1.3 |
| COc1cc([C@@H]2c3cc4c(cc3[C@@H](O[C@@H]3O[C@@H]5CO[C@@H](C)O[C@H]5[C@H](O)[C@H]3O)[C@H]3COC(=O)[C@H]23)OCO4)cc(OC)c1O | 0 |
| O=C(O)c1ccccc1-c1ccccc1C(=O)Nc1ccc2oc(=O)c3ccccc3c2c1 | 0.15 |

| Compound | T2 sensor activation Q score |
| --- | --- |
| CN(C)c1nc(N(C)C)nc(N(C)C)n1 | -0.6 |
| CC1CN(CCN2CC(C)N(C=O)CC2C)C(C)CN1C=O (configuration not stated) | 0.15 |
| O=c1nc(Nc2cccc(Cl)c2)oc2cc(Cl)oc(=O)c12 | 0.85 |
| COC(=O)C1(C(=O)OC)C2C(=O)C3C(C21)C3(C(=O)OC(C)(C)C)C(=O)OC(C)(C)C (configuration not stated) | -0.5 |
| NS(=O)(=O)c1ccc(Nc2ccccc2)c([N+](=O)[O-])c1 | 1.25 |
| CCOC(=O)Cn1nc2oc(=O)c(CCN3CCN(c4ccccc4OC)CC3)c(C)c2c1C | 0.55 |
| S=c1[nH]c2ccccc2n2cccc12 | 1.1 |
| NNC(=O)CNC(=O)Nc1n[nH]c(=S)s1 | 0.4 |
| Nc1nc(=S)c2[nH]cnc2[nH]1 | -1.4 |
| Nc1nc(SCc2ccccn2)c2ncn(C3OC(CO)C(O)C3O)c2n1 (configuration not stated) | -0.15 |
| NC(=O)C1=C(N)c2ccccc2C1c1ccccc1 (configuration not stated) | 1.4 |
| CCCCCOc1ccc(N2C(=O)C(C)CNC2=S)cc1 (configuration not stated) | 0.7 |
| O=C1CSC(=S)N1/N=C/c1c[nH]c2ccc(Br)cc12 | 1.35 |
| C=CCSC(CC)(CC)C(N)=O | 1.75 |
| CCOC(=O)N1CCc2cc(OC)c(OC)c3c2c1cc1cc(OC)c(OC)cc13 | 1.15 |
| O=C(Nc1ccc(C2=NCCN2)cc1)c1ccc(C(=O)Nc2ccc(C3=NCCN3)cc2)c(Cl)c1 | 1.25 |
| CCCCOC(=O)c1cccnc1 | -1.25 |
| Cn1cnc([N+](=O)[O-])c1Sc1nnc(-c2cccnc2)n1C | 0.45 |
| COc1ccccc1N=NNc1ccccc1OC | 0.05 |
| COc1cc2c(cc1OC)[N+]([O-])=C(c1ccccc1)C2=O | 0 |
| COC(=O)Cc1[nH]c(Cl)nc1C(N)=O | -0.5 |
| CC1=C(C#N)C(C)(C)C(C#N)=C(C)N1 | 1.35 |
| N#Cc1ccc(C(c2ccc(C#N)cc2)n2cncn2)cc1 | -1.45 |
| NC(=O)c1ccc2c(c1)S(=O)(=O)c1ccccc1C2=O | 0.25 |
| Cn1ncc2c(=O)[nH]c(N)nc21 | 1.45 |

| Compound | T2 sensor activation Q score |
| --- | --- |
| COc1c2occc2cc2ccc(=O)oc12 | 0.2 |
| CC(C)=C(c1ccc(Cl)cc1)c1c(N)ncnc1N | -0.4 |
| O=C(O)/C=C/C(=O)N1Cc2cc3ccccc3nc2C1 | -0.3 |
| CCOC(=O)c1cc2c(OC)c(OC)ccc2c2[nH]cc(C#N)c(=O)c12 | 0.45 |
| Cn1c(=O)c2[nH]c(CNc3ccc(C(=O)O)cc3)nc2n(C)c1=O | 1.3 |
| O=C(O)c1ccc(O)c(O)c1 | 0.25 |
| COc1ccc(C(=O)Oc2ccc[nH]c2=O)cc1 | -0.05 |
| CCN(CC)CCNC(=O)C(Cl)=C1C(Cl)=C(Cl)C(Cl)=C1Cl | 1 |
| CCCCCCCCCCCCC(NC(C)=O)(C(=O)OCC)C(=O)OCC | -0.1 |
| COc1c(O)ccc2c1CN1CCc3cc4c(cc3C1C2)OCO4 (configuration not stated) | -1.3 |
| Nc1ccc(/C=C/c2ccc3ncccc3c2)cc1 | 0.4 |
| CC(=O)C1C=CC(C)(C(=O)O)C2C=C(C)C(=O)C(C)(O)C12 (configuration not stated) | 0.2 |
| Cc1cnc(SCc2ccc(Cl)cc2Cl)[nH]c1=O | 0.7 |
| Nc1cc([N+](=O)[O-])ccc1Nc1ccc(O)cc1 | 0.75 |
| COc1ccc2nc3cc(Cl)ccc3c(Nc3cc(C(C)C)c(O)cc3C)c2c1 | 0.55 |
| Cc1[nH]ccc2c1[nH]c1cc(=O)ccc12 | -1.9 |
| CC1(C)C2CCC(CN=C(N)CSS(=O)(=O)O)C1C2 (configuration not stated) | 1.3 |
| Cn1c(CO)cnc1-c1ccccc1 | 1.15 |
| O=C(O)c1nc2nc(Cl)c(Cl)nc2[nH]1 | -0.7 |
| COc1ccc2c3c([nH]c2c1)[C@H]1C[C@H]2[C@H](C[C@@H](O)[C@H](OC)[C@H]2C(=O)O)CN1CC3 | -0.05 |
| CN(C)c1ccc(C(c2ccc(N(C)C)cc2)c2ccc([N+](=O)[O-])cc2)cc1 | 0.55 |
| CC1=NCC(C)c2ccccc21 (configuration not stated) | 3.25 |
| O=c1cc(-c2ccccc2)nc2cc(-c3ccco3)[nH]n12 | 0.8 |
| CC(=O)Nc1ccc(OCCOc2ccc([N+](=O)[O-])cc2)cc1 | 1.15 |
| CCN1CCC(Nc2ccnc3cc(Cl)ccc23)CC1 | -1.75 |

| Compound | T2 sensor activation Q score |
| --- | --- |
| COc1cccc2nc3cc(C)c(C)cc3nc12 | 1.9 |
| Nc1ccc(SCc2nc3cccc4c3n2CCC4)cc1 | 0.35 |
| COc1cc(C(=O)c2cocc2C(=O)c2ccc3c(c2)OCO3)cc(OC)c1OC | 1.05 |
| COc1cc2oc3cc(C)oc(=O)c3c2cc1OC | 0.55 |
| CCOC(=O)C1CC(C)=C(C)CC1C(=O)O (configuration not stated) | 0.65 |
| CC(=O)Nc1cccc(-n2c(=O)n(C3CC3)c(=O)c3c(Nc4ccc(I)cc4F)n(C)c(=O)c(C)c32)c1 | 0.4 |
| O=C(Nc1ccsn1)c1ccc(Cl)cc1Cl | 1.25 |
| CCC(CO)Nc1nc2ccc(Cl)cc2c2ccccc12 (configuration not stated) | 0.65 |
| CCCCC(=O)N(CCC)CCC | 0.6 |
| NC(N)=NS(=O)(=O)c1ccc(N=C2C(=O)Nc3ccccc32)cc1 | 1.9 |
| Oc1cccc2cnccc12 | 0.9 |
| Cc1cc(=O)n2c3c(c4c(cc13)c(CN(C)C)cc(=O)n4C)OC2 | 1.3 |
| CCOC(=O)/C=C/c1ccc(C(=O)OCC)[nH]1 | -1.8 |
| COc1cc(C(O)c2nc3ccccc3s2)cc(OC)c1OC (configuration not stated) | -0.5 |
| O=C1CCCC1C(=O)Nc1ccc2ccccc2c1 (configuration not stated) | -0.15 |
| Cc1c(-c2ccccc2)n(O)[n+]([O-])c1-c1ccccc1 | 0.85 |
| CSc1cccc(NC(=O)Nc2ccccc2C(N)=O)c1 | 1.25 |
| Clc1nc2nc3n(c2nc1Cl)CCC3 | -1.55 |
| CN(C)CC1C2CCC(C2)C1O (configuration not stated) | -1.55 |
| N#C/C(=C\c1cccnc1)c1ccc(Br)cc1 | 0.15 |
| COC(=O)C1(C)Cc2cc(OC(C)=O)c(OC(C)=O)cc2N1 (configuration not stated) | -1.5 |
| CN1CCN(C(=O)/C=C/c2ccc([N+](=O)[O-])o2)CC1 | 1.05 |

In another format: three of the compounds above.
Compound | T2 sensor activation Q score
COc1cccc2nc3cc(C)c(C)cc3nc12 | 1.9
Nc1ccc(SCc2nc3cccc4c3n2CCC4)cc1 | 0.35
COc1cc(C(=O)c2cocc2C(=O)c2ccc3c(c2)OCO3)cc(OC)c1OC | 1.05

— the supplement of paper PMC5407854, “Inhibitor of ppGalNAc-T3-mediated O-glycosylation blocks cancer cell invasiveness and lowers FGF23 levels” (eLife, 2017)
